In all, about 320,000 compounds went through this assay and about 2,100 (0.66%) were called active. Inconclusive results, whose numbers are uncertain, are shown with a selection of clear calls. Calls come from the whole dose curve; as a rule, active = well fitted inhibition curve with a large enough effect in the signal ratio, with a control signal flat (not every such curve was filed as active); inconclusive = small, poorly fitted or top-dose-only effect, or effect the other way, or a change in a side signal; inactive = flat fitted curve, though single readings scatter; the % refers to the signal ratio. Potencies beside an inconclusive call are fits to weak or partial responses and may not hold up.
Assay: qHTS Assay for Lipid Storage Modulators in Drosophila S3 Cells
Settings: BODIPY lipid droplet fluorescence, 18-24 h, cells fed with added oleic acid; lipid storage change, negative = inhibition: at 46.1 µM (top of the series) unless noted
Summary of the method: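 Laser-scanning cytometry quantifies lipid droplet accumulation (500–530 nm total intensity; droplet/cell object ratio) in oleic acid-fed (400 uM added) Drosophila S3 cells treated with a concentration series. 20 uM Triacsin C defined 100% inhibition.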
% is set by controls: 0 for no effect and ±100 for the full control effect; potency is the fitted concentration of half-maximal effect.

Compound | lipid storage change, negative = inhibition | Potency
Cc1c(NS(=O)(=O)c2ccc(Cl)c(C(=O)OC(C)C(=O)NCc3ccco3)c2)c(=O)n(-c2ccccc2)n1C (stereo not given) | inconclusive: -32.4% | 
CCOc1ccc([C@@H]2CC=C(C(=O)O)[C@H](c3ccc(Cl)cc3)N2S(=O)(=O)c2ccc(C)cc2)cc1 | inconclusive: 18.5% | 
N/C(=N\OC(=O)c1cccs1)c1cccnc1 |  | inconclusive: 0.326 µM [falling, full curve, poor fit]
Cc1cc(C)n(C(=O)c2cc3sccc3[nH]2)n1 |  | inconclusive: 2.91 µM [activator, full curve]
CCOc1cc(CNCc2ccccc2)ccc1OCc1ccc(Cl)cc1 | inconclusive: -95.5% | 
Cc1nn(C(=O)CN2C(=O)c3ccccc3C2=O)c(C)c1Br | inconclusive: 26.9% | 
Cc1ccc(C2C3=C(Nc4[nH]n(-c5ccccc5)c(=O)c42)c2ccccc2C3=O)cc1 (stereo not given) | inconclusive: 50.6% | 
COc1ccccc1CNc1ncc(-c2ccc(F)cc2)n1C | inactive | 
Cc1ccc(Cl)cc1NC(=O)COc1ccccc1 | inconclusive: 24.2% | 
CCCc1ccc(C(=O)N2CCN(c3ccccc3OCC)CC2)cc1 | inconclusive: 76.2% | 
CCC1CCCCN1C(=S)Nc1cccc(S(=O)(=O)N(C)C)c1 (stereo not given) | inconclusive: 41.3% | 
COc1ccc(C(Nc2cc(C)ccn2)c2ccc3ccc(C)nc3c2O)cc1 (stereo not given) | inconclusive: 2.3% | 
CC(=O)Nc1ccccc1C(=O)C(=O)Nc1ccc(Cl)cc1 | inconclusive: 42% | 
Nc1ccc(-c2nnn(CC(=O)N3CCCCC3)n2)cc1 |  | inconclusive: 20.6 µM [activator, single point]
Cc1ccc(NC(=O)C(=O)NCC2CCCO2)cc1C (stereo not given) | inconclusive: 8.89% | 
COC(=O)Cc1ccc2c3ccccc3n(C)c2c1 | inconclusive: -1.99% | 
CCn1nc(C)cc1C(=O)NC1CC(C)(C)Cc2c1cnn2-c1cccc(F)c1 (stereo not given) |  | inconclusive: 29.1 µM [falling, single point]
COC(=O)C1=C(C)N(Cc2ccccc2)C(=NCC2CC2)N[C@H]1c1ccccc1 | inconclusive: -43.1% | 
COCc1cc(C)nc2oc(C(=O)c3ccccc3)c(N)c12 | inconclusive: 19.1% | 
COC(=O)c1ccc(NC(=O)COC(=O)C2CCC2)cc1 | inconclusive | 
O=C(CSc1ccc2ccccc2c1)Nc1ccc(S(=O)(=O)Nc2nccs2)cc1 |  | inconclusive: 18.4 µM [rising, partial curve, poor fit]
CC(=O)c1cnc2cc(-c3cccc(Br)c3)nn2c1C | inconclusive: 22.5% | 
Cc1ccccc1N=C1SC(CC(=O)Nc2ccc3ccccc3c2)C(=O)N1Cc1ccccn1 (stereo not given) | inconclusive: -52.9% | 
CCc1cccc(CC)c1NC(=O)COc1ccccc1C(=O)c1cc(C#N)c(=O)n(C2CCCCC2)c1 | inconclusive: -91.9% | 
O=C(O)c1cc(Cl)c2ccccc2c1O | inconclusive: 18.8% | 

Compound | lipid storage change, negative = inhibition | Potency
O=C(COc1ccc2c3c(c(=O)oc2c1)CCCC3)NCC(O)c1ccccc1 (stereo not given) | inconclusive: 31.6% | 
COc1cc(NC(=O)c2cc(-n3cnnc3)ccc2Cl)cc(OC)c1 |  | inconclusive: 0.0731 µM [falling, partial curve, poor fit]
Cc1ccc2nc(SCc3ccc([N+](=O)[O-])cc3)[nH]c2c1 | inconclusive: 9.72% | 
C/C(=N/NS(=O)(=O)c1ccc(C)cc1C)c1ccc2c(c1)OCO2 | inconclusive: 61.8% | 
O=C(O)CCc1ccccc1OC(=O)c1ccccc1 | inconclusive: -21.6% | 
CC(=O)Nc1ccc(OS(=O)(=O)c2cc(Cl)ccc2C)cc1 | inconclusive: 10.2% | 
COc1cccc(NC(=O)C2C3C=CC(O3)C2C(=O)NCc2cccnc2)c1 (stereo not given) |  | inconclusive: 8.2 µM [activator, partial curve]
COc1ccccc1C(=O)NNC(=S)NC(=O)c1cccs1 |  | inconclusive: 29.1 µM [activator, single point]
CN(Cc1nc(-c2ccncc2)no1)S(=O)(=O)c1ccc(Br)cc1 | inconclusive: 13.4% | 
CC(NC(=O)c1c(O)c2ccccc2n(C)c1=O)c1ccccc1 (stereo not given) | inconclusive: -85.8% | 
COc1ccc(N(C(C)=O)S(=O)(=O)c2cc(OC)ccc2OC)cc1 |  | inconclusive: 23.1 µM [activator, single point]
COc1cccc(C(=O)NC2CCN(CC(=O)Nc3nccs3)CC2)c1 | inconclusive: -2.92% | 
Cc1cc(C)n(CCCNC(=O)c2ccc3c(c2)NC(=O)CS3)n1 |  | inconclusive: 1.16 µM [activator, full curve]
O=C(O)C1OC(C(=O)O)C2C1C(F)(F)C2(F)F (stereo not given) |  | inconclusive: 3.66 µM [falling, full curve]
COc1ccc(N2CCN(C(=O)c3ccc4ccccc4n3)CC2)cc1 | inactive | 
COc1ccc(-c2nc(CN3CCN(C(=O)c4ccco4)CC3)c(C)o2)c(F)c1 | inconclusive: 25.4% | 
O=C(Cc1cccc(C(F)(F)F)c1)N1CCCC1 |  | inconclusive: 18.4 µM [activator, single point]
O=C1c2cc(O)c(O)cc2S(=O)(=O)C1c1ccccc1 (stereo not given) |  | inconclusive: 6.51 µM [activator, single point]
NS(=O)(=O)c1ccc(CNC(=O)/C=C/c2cccc([N+](=O)[O-])c2)cc1 | inconclusive: -7.2% | 
CCCCN(CC)C(=O)Cn1cnc2ccc(S(=O)(=O)N3CCC(C)CC3)cc2c1=O | inconclusive: 15.7% | 
COc1ccc(S(=O)(=O)N2CCN(C3Cc4ccccc4C3)CC2)cc1 | inconclusive: 33.4% | 
CCOc1c(Br)cc(C(=O)OCC(=O)N2CCc3ccccc3C2)cc1OC |  | inconclusive: 6.51 µM [activator, partial curve, poor fit]
CCOc1ccccc1C1CC(c2ccc(Cl)cc2)Nc2nc(N)nn21 (stereo not given) | inconclusive: 33.2% | 
Cc1cccc(C(=O)Nc2ccccc2C(=O)NCc2ccco2)c1 | inconclusive: 2.3% | 
CCOc1ccc(/C=C/c2[nH]c(=O)[nH]c(=O)c2[N+](=O)[O-])cc1 |  | inconclusive: 29.1 µM [activator, single point]

Three structures out of the list, arranged by count of non-hydrogen atoms, descending:
Compound | lipid storage change, negative = inhibition | Potency
COc1ccc(N(C(C)=O)S(=O)(=O)c2cc(OC)ccc2OC)cc1 |  | inconclusive: 23.1 µM [activator, single point]
Cc1cc(C)n(CCCNC(=O)c2ccc3c(c2)NC(=O)CS3)n1 |  | inconclusive: 1.16 µM [activator, full curve]
O=C1c2cc(O)c(O)cc2S(=O)(=O)C1c1ccccc1 (stereo not given) |  | inconclusive: 6.51 µM [activator, single point]

Reference: PubChem BioAssay AID2685 (National Center for Advancing Translational Sciences (NCATS), 2010)
